{"source": "PubChem BioAssay AID1259283 (Sanger Institute, 2017)", "aim": "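Kinases needed for HT115 growth and partners for drug synergy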 (primary screen)", "system": "HT115 colorectal cancer cells", "reagent": "siRNA pool against human genes", "conditions": "anchor drug given one day after siRNA: BYL719 at 1 µM, cetuximab at 5 µg/ml, trametinib at 10 nM, or DMSO vehicle alone", "measurement": "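Per-drug synergy scores plus replicate-mean viability relative to non-targeting pool #2 wells, also expressed as a robust z-score based on control wells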", "scale": "robust z-score, knock-down alone: higher = more viable cells after knock-down", "rule for the call": "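a gene counts as essential when its robust z-score with knock-down alone is below -3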", "calls": "active = essential (z below -3, no drug); inactive = no change without drug", "note": "In all, the deposit lists 794 reagents; shown is a part drawn at random. 14 of all reagents (1.8%) were called active. 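Calls reflect only viability loss without drug; drug synergy does not enter the call.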 Entries without a mark were called inactive. Further read-outs or replicates are left out here. Not given: the amount of reagent, the time to read-out."}
The opening 2 records, ahead of the listing:
{"gene symbol":"MAPK4 (GeneID 5596)","PubChem SID":"SID152148838","robust z-score, knock-down alone":-1.27}
{"gene symbol":"DLG4 (GeneID 1742)","PubChem SID":"SID152149566","robust z-score, knock-down alone":-0.454}

Results, from the start:
{"gene symbol":"MAPK4 (GeneID 5596)","PubChem SID":"SID152148838","robust z-score, knock-down alone":-1.27}
{"gene symbol":"DLG4 (GeneID 1742)","PubChem SID":"SID152149566","robust z-score, knock-down alone":-0.454}
{"gene symbol":"AK3 (GeneID 50808)","PubChem SID":"SID56479080","robust z-score, knock-down alone":0.789}
{"gene symbol":"EIF2AK3 (GeneID 9451)","PubChem SID":"SID152151333","robust z-score, knock-down alone":0.453}
{"gene symbol":"ERBB3 (GeneID 2065)","PubChem SID":"SID135620617","robust z-score, knock-down alone":0.789}
{"gene symbol":"PANK4 (GeneID 55229)","PubChem SID":"SID56479123","robust z-score, knock-down alone":-0.774}
{"gene symbol":"NIM1K (GeneID 167359)","PubChem SID":"SID56478948","robust z-score, knock-down alone":-0.221}
{"gene symbol":"PKDCC (GeneID 91461)","PubChem SID":"SID152147854","robust z-score, knock-down alone":0.169}
{"gene symbol":"MASTL (GeneID 84930)","PubChem SID":"SID56478754","robust z-score, knock-down alone":-2.18}
{"gene symbol":"DYRK1B (GeneID 9149)","PubChem SID":"SID56478878","robust z-score, knock-down alone":-1.33}
{"gene symbol":"EPHB2 (GeneID 2048)","PubChem SID":"SID135620616","robust z-score, knock-down alone":-0.762}
{"gene symbol":"TRIB2 (GeneID 28951)","PubChem SID":"SID56479059","robust z-score, knock-down alone":-0.613}
